Results taken from paper PMC11442470.
Results are given in words; binding and its absence hold for the method and conditions named. In cells and extracts the contact can be indirect. Some results given as binding are weak or reduced against the parent protein; the word gives no strength.

Protein sequences, listed by entry. Tags and fused reporters are not part of them. Residues count along the entry.
UniProt O94925, residues 55-669: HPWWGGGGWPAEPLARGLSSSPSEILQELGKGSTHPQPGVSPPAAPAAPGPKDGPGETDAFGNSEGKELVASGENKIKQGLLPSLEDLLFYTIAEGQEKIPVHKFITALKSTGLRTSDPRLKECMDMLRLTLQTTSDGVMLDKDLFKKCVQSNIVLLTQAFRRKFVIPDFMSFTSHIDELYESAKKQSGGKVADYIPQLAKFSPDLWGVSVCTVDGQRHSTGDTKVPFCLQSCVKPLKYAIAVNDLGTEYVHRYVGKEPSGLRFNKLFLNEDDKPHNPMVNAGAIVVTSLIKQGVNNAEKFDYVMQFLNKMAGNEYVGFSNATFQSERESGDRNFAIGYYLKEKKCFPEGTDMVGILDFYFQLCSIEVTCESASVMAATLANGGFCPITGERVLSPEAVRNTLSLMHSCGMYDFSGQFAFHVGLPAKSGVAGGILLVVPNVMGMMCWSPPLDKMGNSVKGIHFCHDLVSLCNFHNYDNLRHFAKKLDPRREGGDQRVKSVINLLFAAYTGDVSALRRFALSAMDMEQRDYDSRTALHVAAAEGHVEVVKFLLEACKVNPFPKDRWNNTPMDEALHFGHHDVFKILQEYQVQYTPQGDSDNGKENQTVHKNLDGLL

Molecular target: GLS1, ectopically expressed in HEK293T cells (UniProt O94925)
Assay: co-IP; HEK293T cells transfected with expression plasmids for GLS1 and PDZD8, DDM/CHS lysis buffer, anti-HA, anti-Myc or anti-FLAG precipitation, 4 h at 4 °C

B1: PDZD8, ectopically expressed in HEK293T cells (protein, UniProt Q8NEN9 1-1154)
chain: MGLLLMILASAVLGSFLTLLAQFFLLYRRQPEPPADEAARAGEGFRYIKPVPGLLLREYLYGGGRDEEPSGAAPEGGATPTAAPETPAPPTRETCYFLNATILFLFRELRDTALTRRWVTKKIKVEFEELLQTKTAGRLLEGLSLRDVFLGETVPFIKTIRLVRPVVPSATGEPDGPEGEALPAACPEELAFEAEVEYNGGFHLAIDVDLVFGKSAYLFVKLSRVVGRLRLVFTRVPFTHWFFSFVEDPLIDFEVRSQFEGRPMPQLTSIIVNQLKKIIKRKHTLPNYKIRFKPFFPYQTLQGFEEDEEHIHIQQWALTEGRLKVTLLECSRLLIFGSYDREANVHCTLELSSSVWEEKQRSSIKTVELIKGNLQSVGLTLRLVQSTDGYAGHVIIETVAPNSPAAIADLQRGDRLIAIGGVKITSTLQVLKLIKQAGDRVLVYYERPVGQSNQGAVLQDNFGQLEENFLSSSCQSGYEEEAAGLTVDTESRELDSEFEDLASDVRAQNEFKDEAQSLSHSPKRVPTTLSIKPLGAISPVLNRKLAVGSHPLPPKIQSKDGNKPPPLKTSEITDPAQVSKPTQGSAFKPPVPPRPQAKVPLPSADAPNQAEPDVLVEKPEKVVPPPLVDKSAEKQAKNVDAIDDAAAPKQFLAKQEVAKDVTSETSCPTKDSSDDRQTWESSEILYRNKLGKWTRTRASCLFDIEACHRYLNIALWCRDPFKLGGLICLGHVSLKLEDVALGCLATSNTEYLSKLRLEAPSPKAIVTRTALRNLSMQKGFNDKFCYGDITIHFKYLKEGESDHHVVTNVEKEKEPHLVEEVSVLPKEEQFVGQMGLTENKHSFQDTQFQNPTWCDYCKKKVWTKAASQCMFCAYVCHKKCQEKCLAETSVCGATDRRIDRTLKNLRLEGQETLLGLPPRVDAEASKSVNKTTGLTRHIINTSSRLLNLRQVSKTRLSEPGTDLVEPSPKHTPNTSDNEGSDTEVCGPNSPSKRGNSTGIKLVRKEGGLDDSVFIAVKEIGRDLYRGLPTEERIQKLEFMLDKLQNEIDQELEHNNSLVREEKETTDTRKKSLLSAALAKSGERLQALTLLMIHYRAGIEDIETLESLSLDQHSKKISKYTDDTEEDLDNEISQLIDSQPFSSISDDLFGPSESV
Question: For B1, which binding is on record?
Answer: The binding was “binds”.
